Assay results: PubChem BioAssay AID256 (DTP/NCI, 2004)
The list shows only some results of the screen, not a fair sample: it is rich in T/C values a quarter to a half above the control, in often repeated tests (any T/C) and in doses without a T/C. Other doses and runs of a compound stand elsewhere. T/C is the treated group as % of the vehicle group. Some entries give survivors of the animals treated and no T/C: the source files T/C as zero there, which appears to mark a toxic dose or a test without result, not a measured value. Some survivor counts are full or nearly so, which does not show that the dose was tolerated: the source hardly ever lists a survival T/C far under the control, and the zero likely stands for such cases as well. Counts of survivors are from the toxicity check (mostly the fifth day) where no day follows; animals may have died later. Schedules are NCI's codes, taken here to give the interval after Q, in days (D) or hours (H), and the number of doses after X. Some molecules as drawn cover several salts, stereoisomers or complexes of the source; a dose is that of the sample tested. Some entries hold several experiments; their values stand side by side, smallest first. Where survival is the endpoint, the PubChem record calls one and a half times the control and up active, and a quarter to a half above the control has no call in these data; cut-offs in other NCI protocols can differ. Marks such as (2×) say how often a value occurs here. Some T/C values carry the count of animals alive at the toxicity check (mostly the fifth day); where none is given, no animal had died by that day.

Test system: CD2F1 mice, L1210 leukemia ip, survival T/C
Test: NCI In Vivo Anticancer Drug Screen. Data for tumor model L1210 Leukemia (intraperitoneal) in CD2F1 (CDF1) mice
Settings: higher T/C = longer survival
In short: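 Ratio T/C, where T is the treated-group value and C the vehicle-dosed control value, from mice implanted with a transplantable tumor.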

[1] = T/C endpoint: mean survival time, dose: 45.9 mg/kg/injection, schedule: Q01DX005 (iv), vehicle: saline with Tween-80
[2] = T/C endpoint: mean survival time, dose: 200.0 mg/kg/injection, schedule: Q04DX003 (ip), vehicle: saline with Tween-80
[3] = T/C endpoint: mean survival time, dose: 200.0 mg/kg/injection, schedule: Q04DX002 (ip), vehicle: saline with Tween-80
[4] = T/C endpoint: mean survival time, dose: 400.0 mg/kg/injection, schedule: Q04DX002 (ip), vehicle: saline with Tween-80

SMILES: Cc1cc(NCCCCCCNc2cc(C)nc3ccc(N)cc23)c2cc(N)ccc2n1
- survivor count (T/C endpoint: mean survival time, dose: 4.5 mg/kg/injection, schedule: Q01DX005 (iv), vehicle: water): 3 of 10
- survivor count (T/C endpoint: mean survival time, dose: 4.51 mg/kg/injection, schedule: Q01DX005 (iv), vehicle: water): 0 of 10
- T/C (T/C endpoint: mean survival time, dose: 4.9 mg/kg/injection, schedule: Q08HX009 (ip), vehicle: saline with Tween-80): 126 % of control
- survivor count (T/C endpoint: mean survival time, dose: 5.0 mg/kg/injection, schedule: Q08HX009 (iv), vehicle: water): 4 of 10
- survivor count (T/C endpoint: mean survival time, dose: 6.0 mg/kg/injection, schedule: Q01DX005 (iv), vehicle: water): 0 of 10
- survivor count (T/C endpoint: mean survival time, dose: 6.01 mg/kg/injection, schedule: Q01DX005 (iv), vehicle: water): 0 of 9
- T/C (T/C endpoint: mean survival time, dose: 6.01 mg/kg/injection, schedule: Q01DX009 (ip), vehicle: water): 127 % of control
- survivor count (T/C endpoint: mean survival time, dose: 6.25 mg/kg/injection, schedule: Q01DX009 (ip), vehicle: water): 6 of 10
- survivor count (T/C endpoint: mean survival time, dose: 8.0 mg/kg/injection, schedule: Q01DX005 (iv), vehicle: water): 0 of 10
- survivor count (T/C endpoint: mean survival time, dose: 8.01 mg/kg/injection, schedule: Q01DX005 (iv), vehicle: water): 0 of 10
- T/C (T/C endpoint: mean survival time, dose: 8.01 mg/kg/injection, schedule: Q01DX009 (ip), vehicle: water): 134 % of control
- T/C (T/C endpoint: mean survival time, dose: 8.2 mg/kg/injection, schedule: Q01DX009 (ip), vehicle: saline with Tween-80): 128 % of control
- T/C (T/C endpoint: mean survival time, dose: 9.4 mg/kg/injection, schedule: Q01DX009 (ip), vehicle: saline with Tween-80): 121, 124, 127, 128 % of control
- T/C (T/C endpoint: mean survival time, dose: 9.4 mg/kg/injection, schedule: Q01DX009 (ip), vehicle: water): 127 % of control
- T/C (T/C endpoint: mean survival time, dose: 9.6 mg/kg/injection, schedule: Q01DX009 (ip), vehicle: water): 129 % of control
- T/C (T/C endpoint: mean survival time, dose: 9.8 mg/kg/injection, schedule: Q08HX009 (ip), vehicle: saline with Tween-80): 134 % of control
- survivor count (T/C endpoint: mean survival time, dose: 10.0 mg/kg/injection, schedule: Q08HX009 (iv), vehicle: water): 0 of 10
- survivor count (T/C endpoint: mean survival time, dose: 10.7 mg/kg/injection, schedule: Q01DX005 (iv), vehicle: water): 0 of 10 and 0 of 8
- T/C (T/C endpoint: mean survival time, dose: 10.7 mg/kg/injection, schedule: Q01DX009 (ip), vehicle: water): 142 % of control
- T/C (T/C endpoint: mean survival time, dose: 10.9 mg/kg/injection, schedule: Q01DX009 (ip), vehicle: saline with Tween-80): 132 % of control
- T/C (T/C endpoint: mean survival time, dose: 12.5 mg/kg/injection, schedule: Q01DX009 (ip), vehicle: water): 136 and 147 % of control
- T/C (T/C endpoint: mean survival time, dose: 12.8 mg/kg/injection, schedule: Q08HX009 (ip), vehicle: water): 139 % of control
- survivor count (T/C endpoint: mean survival time, dose: 14.2 mg/kg/injection, schedule: Q01DX005 (iv), vehicle: water): 0 of 10
- T/C (T/C endpoint: mean survival time, dose: 14.2 mg/kg/injection, schedule: Q01DX009 (ip), vehicle: water): 136 % of control
- T/C (T/C endpoint: mean survival time, dose: 14.7 mg/kg/injection, schedule: Q01DX009 (ip), vehicle: saline with Tween-80): 131 % of control
- survivor count (T/C endpoint: mean survival time, dose: 16.7 mg/kg/injection, schedule: Q01DX009 (ip), vehicle: water): 2 of 10 and 5 of 10
- T/C (T/C endpoint: mean survival time, dose: 18.8 mg/kg/injection, schedule: Q01DX009 (ip), vehicle: saline with Tween-80): 122, 145, 147, 149 % of control
- survivor count (T/C endpoint: mean survival time, dose: 19.0 mg/kg/injection, schedule: Q01DX005 (iv), vehicle: water): 0 of 10
- T/C (T/C endpoint: mean survival time, dose: 19.0 mg/kg/injection, schedule: Q01DX009 (ip), vehicle: water): 143 % of control
- T/C (T/C endpoint: mean survival time, dose: 19.2 mg/kg/injection, schedule: Q01DX009 (ip), vehicle: water): 142 % of control [9 of 10 alive]
- survivor count (T/C endpoint: mean survival time, dose: 20.0 mg/kg/injection, schedule: Q08HX009 (iv), vehicle: water): 0 of 10
- T/C (T/C endpoint: mean survival time, dose: 22.7 mg/kg/injection, schedule: Q01DX009 (ip), vehicle: saline with Tween-80): 127 % of control
- T/C (T/C endpoint: mean survival time, dose: 25.0 mg/kg/injection, schedule: Q01DX009 (ip), vehicle: water): 129 % of control [9 of 10 alive]
- survivor count (T/C endpoint: mean survival time, dose: 25.3 mg/kg/injection, schedule: Q01DX005 (iv), vehicle: water): 0 of 9
- survivor count (T/C endpoint: mean survival time, dose: 25.6 mg/kg/injection, schedule: Q08HX009 (ip), vehicle: water): 2 of 8
- survivor count (T/C endpoint: mean survival time, dose: 29.7 mg/kg/injection, schedule: Q01DX009 (ip), vehicle: water): 1 of 10
- survivor count (T/C endpoint: mean survival time, dose: 33.8 mg/kg/injection, schedule: Q01DX005 (iv), vehicle: water): 0 of 10
- survivor count (T/C endpoint: mean survival time, dose: 33.8 mg/kg/injection, schedule: Q01DX009 (ip), vehicle: water): 2 of 10
- T/C (T/C endpoint: mean survival time, dose: 37.5 mg/kg/injection, schedule: Q01DX009 (ip), vehicle: saline with Tween-80): 134, 138, 150, 169, 173 % of control
- survivor count (T/C endpoint: mean survival time, dose: 38.5 mg/kg/injection, schedule: Q01DX009 (ip), vehicle: water): 0 of 10
- T/C (T/C endpoint: mean survival time, dose: 40.4 mg/kg/injection, schedule: Q01DX009 (ip), vehicle: saline with Tween-80): 138 % of control
- survivor count (T/C endpoint: mean survival time, dose: 45.0 mg/kg/injection, schedule: Q01DX005 (iv), vehicle: water): 0 of 10
- survivor count (T/C endpoint: mean survival time, dose: 45.0 mg/kg/injection, schedule: Q01DX009 (ip), vehicle: water): 0 of 10
- T/C (T/C endpoint: mean survival time, dose: 45.0 mg/kg/injection, schedule: Q01DX009 (sc), vehicle: water): 134 % of control
- T/C [1]: 135 % of control [9 of 10 alive]
- survivor count [1]: 4 of 10
- T/C (T/C endpoint: mean survival time, dose: 45.9 mg/kg/injection, schedule: Q01DX009 (sc), vehicle: saline with Tween-80): 130 % of control
- survivor count (T/C endpoint: mean survival time, dose: 50.0 mg/kg/injection, schedule: Q01DX009 (ip), vehicle: water): 1 of 10
- survivor count (T/C endpoint: mean survival time, dose: 52.8 mg/kg/injection, schedule: Q01DX009 (ip), vehicle: water): 0 of 10
- survivor count (T/C endpoint: mean survival time, dose: 60.0 mg/kg/injection, schedule: Q01DX005 (iv), vehicle: water): 0 of 10
- survivor count (T/C endpoint: mean survival time, dose: 60.0 mg/kg/injection, schedule: Q01DX009 (ip), vehicle: water): 0 of 10
- T/C (T/C endpoint: mean survival time, dose: 60.0 mg/kg/injection, schedule: Q01DX009 (sc), vehicle: water): 141 % of control
- T/C (T/C endpoint: mean survival time, dose: 71.8 mg/kg/injection, schedule: Q01DX009 (ip), vehicle: saline with Tween-80): 137 % of control
- T/C (T/C endpoint: mean survival time, dose: 75.0 mg/kg/injection, schedule: Q01DX009 (ip), vehicle: saline with Tween-80): 138, 143 [9 of 10 alive], 148 [9 of 10 alive], 153, 154 % of control
- survivor count (T/C endpoint: mean survival time, dose: 100.0 mg/kg/injection, schedule: Q01DX009 (ip), vehicle: water): 0 of 10
- T/C (T/C endpoint: mean survival time, dose: 133.0 mg/kg/injection, schedule: Q04DX003 (ip), vehicle: saline with Tween-80): 125 % of control [5 of 6 alive]
- survivor count (T/C endpoint: mean survival time, dose: 150.0 mg/kg/injection, schedule: Q01DX009 (ip), vehicle: saline with Tween-80): 3 of 10
- survivor count (T/C endpoint: mean survival time, dose: 156.8 mg/kg/injection, schedule: Q08HX009 (ip), vehicle: saline with Tween-80): 5 of 10
- T/C [2]: 131 % of control
- T/C (T/C endpoint: mean survival time, dose: 200.0 mg/kg/injection, schedule: Q04DX003 (ip), vehicle: saline): 127 % of control
- survivor count (T/C endpoint: mean survival time, dose: 235.2 mg/kg/injection, schedule: Q01DX009 (ip), vehicle: saline with Tween-80): 2 of 10
- survivor count (T/C endpoint: mean survival time, dose: 300.0 mg/kg/injection, schedule: Q01DX009 (ip), vehicle: saline with Tween-80): 0 of 6 and 5 of 10
- T/C (T/C endpoint: mean survival time, dose: 400.0 mg/kg/injection, schedule: Q04DX003 (ip), vehicle: saline): 148 % of control
- T/C (T/C endpoint: median survival time, dose: 25.0 mg/kg/injection, schedule: Q01DX009 (ip), vehicle: water): 134 % of control [7 of 8 alive]

SMILES: Fc1ccc2ccnnc2c1
- survivor count (T/C endpoint: mean survival time, dose: 400.0 mg/kg/injection, schedule: Q01DX001 (ip), vehicle: other): 0 of 6

SMILES: Cc1ccc(C)c(NC(=O)Oc2ccc(F)cc2)c1
- T/C (T/C endpoint: mean survival time, dose: 100.0 mg/kg/injection, schedule: Q04DX002 (ip), vehicle: saline with Tween-80): 86, 91, 97 % of control (2×)
- T/C [3]: 86, 91, 94, 97 % of control
- survivor count [3]: 3 of 3
- T/C [4]: 94 and 98 % of control
- survivor count [4]: 3 of 3

SMILES: CC12CCC(C1)C(C)(C)C2(O)c1ccccc1 (configuration not stated)
- survivor count [2]: 2 of 6
- survivor count (T/C endpoint: mean survival time, dose: 400.0 mg/kg/injection, schedule: Q04DX003 (ip), vehicle: saline with Tween-80): 1 of 6
